According to paper PMC8124251:
Results are given in words; binding and its absence hold for the method and conditions named. Binding seen in cells or lysates may run through a third protein. Some binding calls cover weakened binding; strength is not graded here.

Amino acid sequences for entries named in this document (tags omitted). A change or cut given only in a name is not applied to a line headed by its entry. Chains listed by the source or under a name are the forms on record and can include a tag or linker.
UniProt P45983: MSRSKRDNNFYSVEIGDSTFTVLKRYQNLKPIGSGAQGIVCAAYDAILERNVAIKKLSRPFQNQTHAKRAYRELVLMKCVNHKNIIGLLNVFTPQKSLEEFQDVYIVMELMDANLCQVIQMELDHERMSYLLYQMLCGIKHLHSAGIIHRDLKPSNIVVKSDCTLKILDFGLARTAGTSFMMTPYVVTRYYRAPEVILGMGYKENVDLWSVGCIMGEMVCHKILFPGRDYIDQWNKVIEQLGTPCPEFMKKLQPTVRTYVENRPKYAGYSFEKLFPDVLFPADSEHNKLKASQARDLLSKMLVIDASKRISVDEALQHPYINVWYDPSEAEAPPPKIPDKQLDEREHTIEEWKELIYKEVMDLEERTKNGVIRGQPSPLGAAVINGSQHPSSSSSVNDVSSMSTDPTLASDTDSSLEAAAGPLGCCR
JNK1, endogenous (human (endogenous in MCF7)) (P45983, form named): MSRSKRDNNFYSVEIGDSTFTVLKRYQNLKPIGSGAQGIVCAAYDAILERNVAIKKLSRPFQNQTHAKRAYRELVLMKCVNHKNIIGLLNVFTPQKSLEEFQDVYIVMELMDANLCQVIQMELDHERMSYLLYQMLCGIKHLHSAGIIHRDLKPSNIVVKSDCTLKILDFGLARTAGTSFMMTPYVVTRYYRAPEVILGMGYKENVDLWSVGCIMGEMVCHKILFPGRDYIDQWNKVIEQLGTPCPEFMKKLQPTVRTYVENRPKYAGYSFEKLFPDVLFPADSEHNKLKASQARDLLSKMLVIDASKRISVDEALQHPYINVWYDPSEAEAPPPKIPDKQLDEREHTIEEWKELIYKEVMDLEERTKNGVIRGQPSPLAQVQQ
UniProt P41279: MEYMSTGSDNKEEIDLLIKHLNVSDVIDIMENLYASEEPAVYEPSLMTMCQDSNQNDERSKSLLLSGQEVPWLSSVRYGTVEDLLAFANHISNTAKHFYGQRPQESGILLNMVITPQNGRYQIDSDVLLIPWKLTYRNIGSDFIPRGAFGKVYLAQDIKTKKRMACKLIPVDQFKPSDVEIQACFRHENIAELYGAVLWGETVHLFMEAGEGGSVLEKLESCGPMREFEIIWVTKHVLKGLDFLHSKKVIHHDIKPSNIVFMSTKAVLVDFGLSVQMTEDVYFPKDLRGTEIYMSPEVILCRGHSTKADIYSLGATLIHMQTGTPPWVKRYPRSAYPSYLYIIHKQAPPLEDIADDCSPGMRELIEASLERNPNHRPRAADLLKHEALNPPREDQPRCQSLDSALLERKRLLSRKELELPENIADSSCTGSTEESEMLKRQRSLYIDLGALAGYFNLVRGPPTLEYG

Experiments:
V5-JNK1 = V5-JNK1 (UniProt P45983); assay: co-IP; HEK293 cells co-expressing V5-JNK1 or V5-JNK2 with Myc-COT; immunoprecipitation with anti-V5, immunoblot with anti-Myc or anti-V5; lysis in 150 mM NaCl, 50 mM Tris-HCl pH 7.4, 0.25% sodium deoxycholate, 1 mM EDTA, 1% NP40; overnight at 4 °C
V5-JNK2 = V5-JNK2 (UniProt P45984); assay: as above
[1] = molecular target: JNK1, endogenous (human (endogenous in MCF7)) (UniProt P45983); assay: co-IP; endogenous proteins; MCF7 cells starved 24 h, exposed to 25 ng/mL IL-33 for the indicated time; immunoprecipitation with JNK1 or JNK2 antibodies, immunoblot as indicated
[2] = molecular target: JNK2, endogenous (human (endogenous in MCF7)) (UniProt P45984); assay: as above

Substance	binding (V5-JNK1)	binding (V5-JNK2)	binding [1]	binding [2]
Myc-COT (Cancer Osaka thyroid) (from UniProt P41279 1-467) (enzyme)	binds	binds		
COT (Cancer Osaka thyroid), endogenous (from UniProt P41279-1 1-467) (enzyme)			binds	binds
